From the supplement of paper PMC7858590
Several values for one entry are separate records, joined by “and”; a condition that tells them apart may be missing. Equal values may be shown once. ± gives the standard deviation of the averaged measurements. Whole data set: some 3,800 compounds, median “cell shape (eccentricity) Z-score vs DMSO control” near 1.1, cut for the lowest 2% near -4.7. Some of the results follow.

What follows are compounds tested on human monocyte-derived macrophages (M0) (assay: cell shape (eccentricity) Z-score vs DMSO control; higher = more elongated, M2-like morphology). Conditions: 20 µM; 24 h; macrophage state: M0 (M-CSF).

| SMILES | cell shape (Z-score) |
| --- | --- |
| COc1cccc2c1C(=O)c1c(O)c3c(c(O)c1C2=O)C[C@@](O)(C(C)=O)C[C@@H]3O[C@H]1C[C@H](N)[C@H](O)[C@H](C)O1 | 13 |
| Fc1cccc(C=NN=Cc2cccc(F)c2)c1 | 1.79 |
| O=C(/C=C/c1ccccc1)c1ccc(O)cc1O | 0.718 |
| CN(C)c1ccc(O)c2c1C[C@H]1C[C@H]3[C@H](N(C)C)C(=O)C(C(N)=O)C(=O)[C@@]3(O)C(=O)C1C2=O (stereo not given in full) | -0.164 |
| CC[C@@H]1C(=O)N(C)c2cnc(Nc3ccc(C(=O)NC4CCN(C)CC4)cc3OC)nc2N1C1CCCC1 | 5.51 |
| COC(=O)C1=CO[C@@H](O[C@@H]2O[C@H](CO)[C@@H](O)[C@H](O)[C@H]2O)[C@H]2[C@@H]1C=CC21C=C(C(C)O)C(=O)O1 (stereo not given in full) | -0.0107 |
| C/C(=C\Cc1c(O)ccc2cc(O)c(=O)oc12)COC1OC(CO)C(O)C(O)C1O (stereo not given) | 0.97 |
| CC1OC(OCC2OC(Oc3c(-c4ccc(O)cc4)oc4cc(O)cc(O)c4c3=O)C(O)C(O)C2O)C(O)C(O)C1O (stereo not given) | -1.2 |
| CC(C)c1cc2c(cc1O)[C@@]1(C(=O)O)CCCC(C)(C)C1CC2 (stereo not given in full) | -0.191 ± 0.02 |
| COc1ccc2c(=O)c(-c3ccc(OC)c(OC)c3)coc2c1 | 0.814 ± 1.3 |
| CCC1(O)CC2CN(CCc3c([nH]c4ccccc34)C(C(=O)OC)(c3cc4c(cc3OC)N(C)C3C(O)(C(=O)OC)C(C(=O)OC)C5(CC)C=CCN6CCC43C65)C2)C1 (stereo not given) | 8.52 |
| C/C=C(/C)C(=O)O[C@H]1CC(C)(C)C[C@H]2C3=CCC4[C@@]5(C)CC[C@H](O[C@@H]6O[C@H](C(=O)O)[C@@H](O[C@@H]7O[C@H](CO)[C@H](O)[C@H](O)[C@H]7O[C@@H]7O[C@H](CO)[C@@H](O)[C@H](O)[C@H]7O)[C@H](O)[C@H]6O[C@@H]6O[C@@H](C)[C@H](O)[C@@H](O)[C@H]6O)C(C)(C)C5CC[C@@]4(C)[C@]3(C)[C@@H](OC(C)=O)[C@@H](O)[C@@]12COC(C)=O (stereo not given in full) | 0.487 |
| COc1c2c(cc3occ(-c4ccc5c(c4)OCO5)c(=O)c13)OC(C)(C)C=C2 | 1.71 |
| CC(=O)Nc1ccc(C(=O)Nc2ccccc2N)cc1 | -3.16 ± 2.7 |
| NC(=O)c1ccccc1O | 0.788 |
| COc1cc(-c2ccccn2)nc(/C=N/O)c1[S+](C)[O-] (stereo not given) | 0.66 |
| COc1cc2c(cc1OC)C(c1ccc(N)cc1)=NNC(=O)C2 | 3.23 |
| COc1c(O)cc2c(c1O)[C@H]1O[C@H](CO)[C@@H](O)[C@H](O)[C@@H]1OC2=O | 2.18 |
| Cc1ccc(NC(=O)c2ccc(CN3CCN(C)CC3)cc2)cc1Nc1nc(-c2cccnc2)cs1 | 4.44 |
| CC(C)C[C@H](NC(=O)[C@H](Cc1ccccc1)NC(=O)c1cnccn1)B(O)O | 4.79 and 4.86 |
| CN(C)CCCNc1nc(CN2CCN(C(c3ccc(Cl)cc3)c3ccc(Cl)cc3)CC2)nc2ccccc12 | -1.53 |
| C[C@H]1[C@H](NC(=O)/C(=N/OC(C)(C)C(=O)O)c2csc(N)n2)C(=O)N1S(=O)(=O)O | 7.08 |
| NC(=O)c1ccc(-c2nc(-c3ccc4c(c3)OCCO4)c(-c3ccccn3)[nH]2)cc1 | 4.12 |
| CN1c2ccccc2C(=O)N2CCc3c([nH]c4ccccc34)C21 (stereo not given) | -3.89 |
| NS(=O)(=O)c1ccc(N/C=C2\C(=O)Nc3ccccc32)cc1 | -0.305 |

| SMILES | cell shape (Z-score) |
| --- | --- |
| C[C@@H]1[C@H]2[C@H](OC3O[C@H](CO)[C@@H](O)[C@H](O)[C@H]3O)OC=C(C(=O)O)[C@H]2C[C@@H]1O (stereo not given in full) | 1.67 |
| CC(C)/N=c1\cc2n(-c3ccc(Cl)cc3)c3ccccc3nc-2cc1Nc1ccc(Cl)cc1 | 2.34 |
| COC(=O)C[C@H]1C(C)(C)[C@H](OC(C)=O)[C@]2(O)CC3=C4CC(=O)O[C@@H](c5ccoc5)[C@]4(C)CCC3[C@@]1(C)C2=O (stereo not given in full) | -0.876 |
| CC(=O)O[C@@H]1CC2C(C)(C)C(=O)C=C[C@]2(C)C2CC[C@@]3(C)[C@H](c4ccoc4)OC(=O)[C@H]4O[C@]43[C@@]21C (stereo not given in full) | -4.89 |
| CC(=O)[C@@]12O[C@](C)(c3ccccc3)O[C@@H]1CC1C3CCC4=CC(=O)CC[C@]4(C)C3CC[C@@]12C (stereo not given in full) | 0.632 |
| COC(=O)C[C@H]1C(C)(C)[C@@H](OC(C)=O)[C@@H]2CC3=C4CC(=O)O[C@@H](c5ccoc5)[C@]4(C)CCC3[C@@]1(C)C2=O (stereo not given in full) | 2.68 |
| CC(=O)O[C@H]1C(=O)[C@@]2(C)[C@H]([C@H](OC(=O)c3ccccc3)[C@]3(O)C[C@H](OC(=O)[C@H](O)[C@@H](NC(=O)c4ccccc4)c4ccccc4)C(C)=C1C3(C)C)[C@]1(OC(C)=O)CO[C@@H]1C[C@@H]2O | -5.5 |
| COc1cc(N)c(Cl)cc1C(=O)NC1CCN(CCCOc2ccc(F)cc2)CC1OC (stereo not given) | -0.721 |
| C/C=C(/C)C(=O)OC1Cc2c(ccc3ccc(=O)oc23)OC1(C)C (stereo not given) | -3.69 |
| O=C(/C=C/c1ccccc1)OCC1=CC[C@@H]2C(C(=O)O)=CO[C@@H](O[C@@H]3O[C@H](CO)[C@@H](O)[C@H](O)[C@H]3O)[C@H]12 | 1.08 |
| C=C1C(=O)OC2C3=C(C)C(=O)CC3C(C)CC(O)C12 (stereo not given) | -0.0753 ± 3.3 |
| CC[C@]1(O)C[C@@H]2CN(CCc3c([nH]c4ccccc34)[C@@](C(=O)OC)(c3cc4c(cc3OC)N(C=O)[C@H]3[C@@](O)(C(=O)OC)[C@H](OC(C)=O)[C@]5(CC)C=CCN6CC[C@]43[C@@H]65)C2)C1 | -0.443 |
| COc1c(O)c(C(=O)CCc2ccccc2)c(OC)c(OC)c1OC | 1.92 |
| CC(=O)OC1CC2(C)C(CCC3C4(C)CCC(=O)C(C)C4C(O)C(=O)C32C)/C1=C(\CCC=C(C)C)C(=O)O (stereo not given) | 3.67 ± 2.6 |
| C=C1C(=O)O[C@H]2[C@H]1CC/C(C)=C/CC[C@@]1(C)O[C@@H]21 | -3.88 |
| COc1cc(C(=O)N2CCOCC2)cc(OC)c1OC | 2.78 |
| COC(=O)c1cccc(O)c1C(=O)c1c(O)cc(C)cc1O | -0.639 |
| C[C@@H]1O[C@@H](O[C@@H]2[C@@H](O)[C@H](O[C@@H]3[C@@H](O)[C@@H](O)[C@H](O[C@H]4[C@H](OC(=O)[C@]56CCC(C)(C)C[C@H]5C5=CCC7[C@@]8(C)C[C@H](O)[C@H](O[C@@H]9O[C@H](C(=O)O)[C@@H](O)[C@H](O)[C@H]9O)[C@@](C)(CO)C8[C@H](O)C[C@@]7(C)[C@]5(C)C[C@H]6O)OC[C@H](O)[C@@H]4O)O[C@H]3C)OC[C@H]2O)[C@H](O)[C@H](O)[C@H]1O (stereo not given in full) | 0.295 |
| C[C@@H]1O[C@@H](OC[C@H]2O[C@@H](Oc3ccc(O)cc3)[C@H](O)[C@@H](OC(=O)c3ccc(O)cc3)[C@@H]2O)[C@H](O)[C@H](O)[C@H]1O | 1.4 ± 3.5 |
| NC(=O)c1ccc([N+](=O)[O-])cc1Cl | -0.000275 |
| CN1C(C(=O)Nc2ccccn2)C(=O)c2sccc2S1(=O)=O (stereo not given) | 0.954 |
| CCN(CC)CCCC(C)Nc1ccnc2cc(Cl)ccc12 (stereo not given) | -0.0406 |
| CC(=O)O[C@H]1C[C@@H](OC(C)=O)C(C)(C)C2C[C@@H](OC(C)=O)[C@@]3(C)C4=CC(=O)O[C@@H](c5ccoc5)[C@]4(C)CCC3[C@]21C (stereo not given in full) | -1.63 |
| COc1ccc(-n2c(SCc3nc(-c4ccc(C)cc4)no3)nnc2-c2ccncc2)cc1 | 4.45 |
| CO[C@@]12[C@@H]3NC3CN1C1=C(C(=O)C(N)=C(C)C1=O)[C@@H]2COC(N)=O (stereo not given in full) | -5.51 |

Sorted by molar mass (largest number first): part of the list above.

| SMILES | cell shape (Z-score) |
| --- | --- |
| CC(=O)O[C@H]1C[C@@H](OC(C)=O)C(C)(C)C2C[C@@H](OC(C)=O)[C@@]3(C)C4=CC(=O)O[C@@H](c5ccoc5)[C@]4(C)CCC3[C@]21C (stereo not given in full) | -1.63 |
| O=C(/C=C/c1ccccc1)OCC1=CC[C@@H]2C(C(=O)O)=CO[C@@H](O[C@@H]3O[C@H](CO)[C@@H](O)[C@H](O)[C@H]3O)[C@H]12 | 1.08 |
| CC(C)/N=c1\cc2n(-c3ccc(Cl)cc3)c3ccccc3nc-2cc1Nc1ccc(Cl)cc1 | 2.34 |
| C=C1C(=O)O[C@H]2[C@H]1CC/C(C)=C/CC[C@@]1(C)O[C@@H]21 | -3.88 |

Later entries:

| SMILES | cell shape (Z-score) |
| --- | --- |
| CC(C)OC(=O)C(C(=O)OC(C)C)=C1SC=CS1 | 3.33 |
| Cc1cc(C(C)(C)CC(C)(C)C)ccc1OCCOCC[N+](C)(C)Cc1ccccc1 | -4.7 |
| COC(=O)C1=COC(O[C@@H]2O[C@H](CO)[C@@H](O)[C@H](O)[C@H]2O)[C@@H]2[C@@](C)(O)[C@@H](OC(=O)/C=C/c3ccc(OC)cc3)C[C@]12O (stereo not given in full) | 0.721 |
| C1N2CN3CN1CN(C2)C3 | -0.477 |
| Cc1[nH]c2ccccc2c1CCNCc1ccc(/C=C/C(=O)NO)cc1 | 4.88 and 5.32 |
| CC(=O)OCCN1C(=O)c2c(C)nc3ccc(S(=O)(=O)N4CCOCC4)cc3c2C1=O | 0.322 |
| COc1cc(C=CC(=O)N2CCN(CC(=O)NC(C)C)CC2)cc(OC)c1OC | -0.622 |
| c1cc2c3c(c1)c1c(n3CCNC2)CCCC1 | 0.199 |
| C=CCN1CCN(c2nc3ccccc3nc2C#N)CC1 | -0.547 |
| c1cc(CN2CCCCC2)cc(OCCCNc2nc3ccccc3s2)c1 | -0.667 |
| COc1cc(C(=O)OC[C@@]2(O)CO[C@H](OC3C(CO)OC(Oc4cc(OC)c(OC)c(OC)c4)C(O)C3O)[C@@H]2O)cc(OC)c1O (stereo not given in full) | 1.66 ± 3.6 |
| C[C@]12CCc3occc3C1CC[C@@]13C[C@@H](CCC12)[C@@](O)(CO)C3 (stereo not given in full) | 1.97 |
| C=CC(C)(O)CC/C=C(\C)C(=O)OC1C2OC2(C)C2C(OC3OC(COC4OC(CO)C(O)C(O)C4O)C(O)C(O)C3O)OC=CC12O (stereo not given) | 1.5 ± 0.71 |
| CCOC(=O)[C@H](CCc1ccccc1)N[C@H](C)C(=O)N1C2CCCCC2C[C@H]1C(=O)O (stereo not given in full) | 1.31 |
| COc1cc(CCc2ccc3c(c2)OCO3)oc(=O)c1 | 2.03 |
| COc1cc2ccc(=O)oc2cc1OCC=C(C)C | 2.46 |
| O=C(OCC1=C[C@@H](O)[C@@H]2C=CO[C@@H](O[C@@H]3O[C@H](CO)[C@@H](O)[C@H](O)[C@H]3O)[C@H]12)c1ccc(O)cc1 | 2.02 |
| COc1cc(OC)c2c(c1O)OC(c1ccccc1)CC2=O (stereo not given) | 1.12 |
| O=C(CCCl)NCc1ccccc1 | 3.42 |
| CC(C)C[C@H](NC(=O)[C@@H](O)[C@H](N)Cc1ccccc1)C(=O)O | 4.84 |
| O=C(O)/C=C/c1ccccc1O[C@@H]1O[C@H](CO)[C@@H](O)[C@H](O)[C@H]1O | 1.56 |
| COc1ccc(Cl)cc1C(=O)NCCc1ccc(S(=O)(=O)NC(=O)NC2CCCCC2)cc1 | 2.43 |
| CC(C)=CCn1cnc(=N)c2[nH]cnc21 | 1.37 |
| CC(C)(C)c1ccc(S(=O)(=O)NCc2ccc(C(=O)Nc3cccnc3)cc2)cc1 | 1.14 |
| CCOC(=O)[C@H](CCc1ccccc1)N[C@H]1CCc2ccccc2N(CC(=O)O)C1=O | 2.38 |
